Test results as given in patent EP0208962B1, “Combination preparations from thrombocyte aggregation inhibitors, and their use” (HOECHST AKTIENGESELLSCHAFT, priority 1985, dated 1987).
For at least one compound, name, drawing or mass did not settle the structure.

Columns and labels:
[1] = system: Humanthrombozyten; experiment: Induced aggregation of human platelets in vitro (Method 1, platelet-rich plasma, Born aggregometer); type: cell-based; conditions: human PRP; preincubation 10 min 37°C; induction with 2·10⁻⁴ mol/l Arachidonsäure or 1,7 µg/ml Kollagen; mean of five donors
Description: Methode 1 - Induzierte Aggregation von Humanthrombozyten in vitro
Gesund erscheinenden männlichen und weiblichen Freiwilligen, die im vorangegangenen Zeitraum von 10 Tagen keine Medikamente eingenommen haben, wird durch vorsichtige Kanülierung der Antekubitalvene Blut entnommen, das sofort mit Natriumzitrat (ad 0,38%) stabilisiert wird. Durch 15minütiges Zentrifugieren bei 140 x g erhält man im Überstand plättchenreiches Plasma (PRP), dessen Thrombozytengehalt im Bereich 2,5 - 3,5·10⁺⁸ /ml (Coulter Counter) liegen soll. Die Plättchenaggregation wird optisch durch Messung der Lichttransmission im Born'schen Aggregometer verfolgt. Das Gesamtvolumen des Testansatzes beträgt 0,25 ml. Die Vorinkubationszeit mit dem Prüfpräparat beträgt 10 min bei 37°C, die Aggregationsinduktion erfolgt sodann mit 2 · 10⁻⁴ mol/l Arachidonsäure oder 1,7 µg/ml Kollagen. Das Prüfpräparat wird an fünf verschiedenen Spendern getestet. Aus den jeweiligen maximalen Aggregationsamplituden werden Dosis-Wirkungskurven erstellt und graphisch die arithmetisch gemittelten ED₅₀ (mol/l)-Werte bestimmt. Die Messungen erfolgen im Zeitraum von 1-6 Stunden nach Blutentnahme.

[2] = system: Humanthrombozyten; experiment: Cyclo AMP determination in human platelets (Method 3, 3H-adenine labelling); type: cell-based; conditions: 5 min 37°C, ohne Wirkstoff 9,0·10⁻¹³
Description: Methode 3 - Cyclo AMP-Bestimmung in Humanthrombozyten
Die Methode folgt in allen Einzelheiten der Vorschrift in Nature (London) 292 (1981) 364: Statt Kaninchenthrombozyten wurde jedoch menschliches Thrombozytenkonzentrat mit ³H-Adenin bei 20°C für 90 min inkubiert. Das überschüssige Adenin wird, wie in Nature beschrieben, entfernt, die Wirkstoffe (s. Tab. 2) zugesetzt und erneut 5 min (37°C) inkubiert. Das gebildete ³H-cyclo AMP wird in der bekannten Weise abgetrennt und durch Radioaktivitätsmessung quantifiziert.

Question: For CCCCC[C@H](O)/C=C/[C@@H]1[C@H]2C/C(=C/CCCC(=O)O)O[C@H]2C[C@H]1O [Prostacyclin, reference compound], which “Hemmung der Aggregation ED₅₀ (mol/l) (Methode 1)” value [1] is on record?
Answer: The value was 8·10⁻⁹ mol/l.

Question: And the “cyclo AMP-Spiegel mol/Testansatz” value ([2]; bei 1·10⁻⁸ mol/l)?
Answer: The value was 19,35·10⁻¹² (bei 1·10⁻⁸) mol/Testansatz.

Question: And the “cyclo AMP-Spiegel mol/Testansatz” value ([2]; bei 1·10⁻⁹ mol/l)?
Answer: Its value is 1,71·10⁻¹² (bei 1·10⁻⁹) mol/Testansatz.
